Experimental data published in publication PMC5552691, “Novel giardicidal compounds bearing proton pump inhibitor scaffold proceeding through triosephosphate isomerase inactivation” (Scientific Reports, 2017).

test system: VERO cells; test: Cytotoxicity assay (MTT) in VERO cells; assay type: cell-based; conditions: number in parenthesis
Experimental: The cytotoxic effect of these compounds was also evaluated in mammal cell cultures and their CC50 values calculated and depicted in Table 2.
We used the cell lines VERO (ATCC:CCL-81) and gingival human fibroblasts (kindly provided by Dra. María Dolores Farfán from Facultad de Odontología, Universidad Nacional Autónoma de México). The assay procedure is described below. Cells were maintained in a DMEM medium supplemented with antibiotic-antimycotic (1X), L-glutamine (1X) and 10% fetal bovine serum. Cells were incubated in 25 mL plastic culture flasks (Nunc) at 37 °C and 5% CO2. After the cell cultures grew to confluence, we determined the cell viability by using Trypan Blue method; then, cells were seeded at 4 × 10^4 cells/well in 100 µL culture medium during 24 hours. […] DMSO was maintained constant at 0.2%; a control was performed by incubating cells with this solvent concentration but in absence of compounds. After incubation time, we measured the cell viability by using MTT (3-(4,5-Dimethyl-2-thiazolyl)-2,5-diphenyl-2H-tetrazolium bromide; Roche Diagnostics) method. Briefly, 10 µL MTT (5 mg/mL) was added to cell cultures and incubated at 37 °C during four hours; then, 100 µL of solution containing 10% SDS and 0.01N HCl was added. Thereafter, the formazan products were spectrophotometrically quantified at 570 nm (Labxystem Uniskan, Manchester). The CC50 (median cytotoxicity concentration) and CI95 (95% confidence interval) values from each experiment were determined from the concentration-percentage plots of cell viability obtained by logistic regression. Statistical analysis was performed using the SPPSS software (version 17.0).

First: COc1c(C)cnc(C[S+]([O-])c2nc3ccc(C)cc3[nH]2)c1C (stereo not drawn) [BHO2, 2-[(4-methoxy-3,5-dimethylpyridin-2-yl)methylsulfinyl]-5(6)-methyl-1H-benzimidazole]
Second: COc1ccc2[nH]c([S+]([O-])Cc3ncc(C)c(OC)c3C)nc2c1 (stereo not drawn) [Omeprazole, omeprazole, reference compound]
The “Ratio CC50/IC50 VERO cells vs trophozoites” value of the first is higher: 61 for the first, 46 for the second.

`Cc1ccc2nc([S+]([O-])Cc3nccc(OCC(F)(F)F)c3C)[nH]c2c1` (stereo not drawn) [BHO3, 5(6)-Methyl-2-({[3-methyl-4-(2,2,2-trifluoroethoxy)pyridin-2-yl]methyl}sulfinyl]-1H-benzimidazole] was tested, and the “Ratio CC50/IC50 VERO cells vs trophozoites” value was 38.
